The series concerns Act D-d(ATGCAT) complex. In words: 1H NMR binding of THPs to the Act D-d(ATGCAT) complex.

Turning to `CC1=NCC[C@@H](C(=O)O)N1` [THP(B), 2-methyl-4-carboxy-3,4,5,6-tetrahydropyrimidine], where the note is “addition of THP(B) to Act D-d(ATGCAT), 0.64 Act D per hexamer”, the “downfield chemical shift of GH8 protons” value was 0.018 ppm.

Turning to `CC1=NCC(O)C(C(=O)O)N1` (centres unmarked) [THP(A), 2-methyl-4-carboxy-5-hydroxy-3,4,5,6-tetrahydropyrimidine], the “additional downfield shift of GH8 protons” value (THP(A) added after THP(B) to Act D-d(ATGCAT)) was found to be 0.22 ppm.

The record behind these values is patent US5789414A, “Pharmaceutical compositions comprising tetrahydropyrimidine derivates” (Yeda Research and Development Co. Ltd., priority 1992, dated 1998).
